Assay results: the supplement of paper PMC6078165
The reference is the same well before dosing, and untreated signal decays as well.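 Labels refer to human fibroblasts, largely primary: uterine (C12385, HUF), lung (H6013), bone (Hs27A), adrenal (HADF), skin (WS1), plus mammary HMF and breast cancer-associated Hs343T. Cancer lines are basal-like or mesenchymal-like triple-negative breast cancer. The paper counts as hits responses shifting over 3x the replicate standard deviation. The tissue of the other fibroblasts is not given here.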

Tested on: MDAMB231
Test: relative JC-1 red fluorescence (viability) vs pre-drug, coculture with fibroblast (fraction); higher = more viable cancer cells
Procedure: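 JC-1 labelled TNBC cells cocultured 1:1 (1,500 cells each) with CellTrace Violet stained primary or stromal fibroblasts in 384-well plates in FluoroBrite medium, treated with one of 42 anticancer drugs at 0.1, 1, 10 or 100 uM. JC-1 red fluorescence (mitochondrial integrity in cancer cells only) was read by plate reader every 8 h for 72 h. Values are normalised to each well's pre-drug value. The stock of one drug was tenfold lower, so its dose labels may be too high.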

COc1cc([C@@H]2c3cc4c(cc3[C@@H](O[C@@H]3O[C@@H]5CO[C@@H](c6cccs6)O[C@H]5[C@H](O)[C@H]3O)[C@H]3COC(=O)[C@H]23)OCO4)cc(OC)c1O [Teniposide]
relative JC-1 red fluorescence
Conditions	8 h	16 h	24 h	32 h	40 h	48 h	56 h	64 h	72 h
0.1 µM, coculture fibroblast: C12385	0.772	0.724	0.676	0.63	0.553	0.53	0.49	0.498	0.489
0.1 µM, coculture fibroblast: H6013	0.879	0.801	0.784	0.775	0.754	0.75	0.725	0.703	0.673
0.1 µM, coculture fibroblast: H6019	0.743	0.672	0.638	0.575	0.524	0.497	0.452	0.4354	0.4057
0.1 µM, coculture fibroblast: H6076	0.844	0.781	0.752	0.737	0.698	0.662	0.651	0.64	0.643
0.1 µM, coculture fibroblast: H6231	0.8885	0.797	0.742	0.692	0.636	0.608	0.562	0.545	0.525
0.1 µM, coculture fibroblast: HADF	0.847	0.823	0.812	0.795	0.751	0.731	0.712	0.708	0.667
0.1 µM, coculture fibroblast: HCFa	0.875	0.839	0.796	0.73138	0.67495	0.6272	0.579	0.528	0.476
0.1 µM, coculture fibroblast: HCPF	0.85	0.762	0.709	0.688	0.639	0.612	0.58	0.561	0.539
0.1 µM, coculture fibroblast: HHSteC	0.886	0.8471	0.795	0.747	0.714	0.678	0.634	0.6057	0.5578
0.1 µM, coculture fibroblast: HMF	0.822	0.754	0.707	0.679	0.644	0.611	0.586	0.586	0.588
0.1 µM, coculture fibroblast: HPFa	0.909	0.867	0.812	0.747	0.724	0.68	0.624	0.5912	0.539
0.1 µM, coculture fibroblast: HUF	0.821	0.707	0.711	0.606	0.536	0.513	0.473	0.472	0.468
0.1 µM, coculture fibroblast: Hs5	0.845	0.7894	0.748	0.711	0.669	0.615	0.577	0.555	0.548
0.1 µM, coculture fibroblast: Hs27A	0.891	0.871	0.856	0.848	0.802	0.745	0.744	0.728	0.676
0.1 µM, coculture fibroblast: Hs343T	0.851	0.739	0.674	0.644	0.587	0.543	0.492	0.476	0.458
0.1 µM, coculture fibroblast: WS1	0.711	0.633	0.581	0.52	0.474	0.454	0.421	0.431	0.422
1 µM, coculture fibroblast: C12385	0.744	0.732	0.6774	0.666	0.575	0.566	0.539	0.551	0.541
1 µM, coculture fibroblast: H6013	0.8694	0.847	0.811	0.779	0.748	0.736	0.71	0.696	0.652
1 µM, coculture fibroblast: H6019	0.794	0.735	0.726	0.679	0.636	0.621	0.583	0.573	0.545
1 µM, coculture fibroblast: H6076	0.802	0.754	0.734	0.731	0.685	0.655	0.645	0.642	0.633
1 µM, coculture fibroblast: H6231	0.877	0.787	0.7404	0.701	0.653	0.626	0.589	0.573	0.55
1 µM, coculture fibroblast: HADF	0.857	0.83	0.793	0.758	0.735	0.707	0.687	0.677	0.632
1 µM, coculture fibroblast: HCFa	0.922	0.899	0.874	0.836	0.8	0.745	0.694	0.659	0.599
1 µM, coculture fibroblast: HCPF	0.8676	0.778	0.723	0.71	0.651	0.619	0.587	0.561	0.544
1 µM, coculture fibroblast: HHSteC	0.928	0.916	0.889	0.848	0.808	0.788	0.75	0.727	0.681
1 µM, coculture fibroblast: HMF	0.845	0.8012	0.781	0.756	0.724	0.692	0.67	0.669	0.66
1 µM, coculture fibroblast: HPFa	0.9157	0.904	0.863	0.817	0.806	0.779	0.717	0.687	0.64
1 µM, coculture fibroblast: HUF	0.87	0.7853	0.837	0.747	0.707	0.729	0.695	0.71	0.722
1 µM, coculture fibroblast: Hs5	0.8448	0.784	0.746	0.698	0.66	0.612	0.593	0.58	0.56
1 µM, coculture fibroblast: Hs27A	0.885	0.859	0.837	0.811	0.7698	0.714	0.711	0.697	0.648
1 µM, coculture fibroblast: Hs343T	0.836	0.769	0.711	0.669	0.608	0.558	0.509	0.49	0.463
1 µM, coculture fibroblast: WS1	0.7331	0.6831	0.63616	0.589	0.538	0.509	0.478	0.478	0.472
